Values quoted from earlier work, collected in patent US10624905B2, “Corticosteroids for the treatment of joint pain” (Flexion Therapeutics, Inc., priority 2013, dated 2020).
At least one structure is not confirmed: it was looked up by name or label, or the drawing left a doubt.

Test system: HPA axis
Conditions: 40 mg immediate release, intra-articular; day 1-2; cited from earlier work

In the case of `CC1(C)O[C@@H]2C[C@H]3[C@@H]4CCC5=CC(=O)C=C[C@]5(C)[C@@]4(F)[C@@H](O)C[C@]3(C)[C@]2(C(=O)CO)O1` [triamcinolone acetonide, 9α-Fluoro-11β,16α,17α,21-tetrahydroxy-1,4-pregnadiene-3,20-dione 16,17-acetonide], the “maximal suppression of cortisol” value is given as “approximately 60%”.
